Taken from: PubChem BioAssay AID652243 (Drosophila RNAi Screening Center, 2013)

Purpose: 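Fly regulators of androgen-dependent reporter output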 (primary screen)
Cell system: Drosophila S2R+ cells
Reagent: long dsRNA against Drosophila genes
Duration: 72 h (48 h, then 24 h hormone)
Challenge: synthetic androgen R1881 at 10 nM for 24 h
Detection: 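Per-well raw luminescence of the androgen-driven firefly reporter and of the Renilla control, two replicates each, without normalisation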
Reading the numbers: firefly reporter light: higher = more light from androgen-responsive reporter; Renilla control light: higher = more constitutive control signal (cell number, transfection)
Rule for the call: 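Hit when the log firefly-to-Renilla ratio dropped or increased by a fixed fold versus the mean of GFP or LacZ controls across duplicate plates; lowering cut given as 1.5 and as 3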
Calls: active = hit: reporter lowered or raised; inactive = no hit
The deposit covers about 24,000 reagents; this is a random part of those that have a named target and a result. Over the whole deposit, 246 (1%) got an active call. 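Plates not normalised; calls are printed but the firefly/Renilla ratio behind them is not deposited; fold cut for lowering reported inconsistently.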 Raw values vary from plate to plate and are shown uncorrected. The numbers tell different reagents against one gene apart. A plus sign joins genes that one reagent is predicted to hit. Reagent sequences are not shown. The record does not give: the amount of reagent.

no.	Gene	dsRNA no.	firefly reporter light, replicate 1	firefly reporter light, replicate 2	Renilla control light, replicate 1	Renilla control light, replicate 2	outcome
1	cocoon (GeneID 39665)	1	3.52e5	3.03e5	3.15e6	2.83e6	inactive
2	cocoon (GeneID 39665)	2	5.04e5	4.45e5	1.43e6	1.81e6	inactive
3	Nin (GeneID 33757)	1	4.69e5	6.31e5	9.29e5	1.13e6	inactive
4	CR31700 (GeneID 8673969)	1	1.78e5	2.36e5	2.58e5	3.39e5	inactive
5	CG17666 (GeneID 39452)	1	2.77e5	1.47e5	2.74e6	1.25e6	inactive
6	CG17666 (GeneID 39452)	2	4.69e5	3.87e5	7.91e5	9.13e5	inactive
7	otp (GeneID 37364)	1	3.68e5	4.87e5	9.30e5	9.91e5	inactive
8	otp (GeneID 37364)	2	35144	55771	3.40e5	3.45e5	inactive
9	CG11257 (GeneID 37227)	1	50047	1.15e5	9.28e5	1.33e6	inactive
10	CG14126 (retired record) (GeneID 39350)	1	1.72e5	1.24e5	1.58e6	1.51e6	inactive
11	CG14126 (retired record) (GeneID 39350)	2	5.42e5	6.85e5	1.26e6	1.22e6	inactive
12	CG14490 (GeneID 37041)	1	94259	1.29e5	1.79e6	1.79e6	inactive
13	CG14490 (GeneID 37041)	2	2.88e5	1.84e5	5.15e5	7.29e5	inactive
14	Rrp1 (GeneID 33500)	1	7.08e5	7.24e5	1.68e6	1.98e6	inactive
15	Rrp1 (GeneID 33500)	2	3.28e5	3.19e5	7.43e5	7.08e5	inactive
16	mRpL12 (GeneID 44326)	1	9.34e5	1.08e6	8.98e5	1.40e6	inactive
17	mRpL12 (GeneID 44326)	2	3.06e5	4.65e5	4.91e5	1.29e6	inactive
18	Mur29B (GeneID 319014)	1	1.90e5	1.54e5	5.26e5	4.75e5	inactive
19	Mur29B (GeneID 319014)	2	4.36e5	2.90e5	2.26e6	2.02e6	inactive
20	FucTC (GeneID 3355171)	1	6.48e5	9.24e5	1.97e6	1.66e6	inactive
21	FucTC (GeneID 3355171)	2	8.28e5	7.89e5	1.69e6	1.49e6	inactive
22	Dlish (GeneID 37014)	1	99629	1.15e5	2.45e6	2.45e6	inactive
23	Dlish (GeneID 37014)	2					inactive
24	CG17177 (GeneID 39601)	1	2.75e5	2.73e5	2.64e6	2.47e6	inactive
25	CG3815 (GeneID 31571)	1	96948	91201	9.18e5	5.35e5	inactive
26	CG3815 (GeneID 31571)	2	3.41e5	4.66e5	1.08e6	8.71e5	inactive
27	CG3815 (GeneID 31571)	3	7.04e5	5.82e5	1.51e6	1.53e6	inactive
28	CG3355 (GeneID 33667)	1	1.09e5	1.25e5	9.70e5	8.04e5	inactive
29	CG15468 (GeneID 31426)	1	2.23e5	2.56e5	3.46e6	2.25e6	inactive
30	CG32603 (GeneID 318109)	1	4.33e5	4.29e5	3.69e6	3.87e6	inactive
31	CG32603 (GeneID 318109)	2	3.70e5	4.42e5	1.17e6	1.57e6	inactive
32	CG32603 (GeneID 318109)	3	1.01e6	9.73e5	6.64e5	6.20e5	inactive
33	Fib (GeneID 37662)	1	1.91e5	3.30e5	1.63e6	2.20e6	inactive
34	dally (GeneID 39013)	1	3.35e5	2.59e5	4.91e5	3.62e5	inactive
35	dally (GeneID 39013)	2	4.30e5	1.15e6	9.37e5	2.23e6	inactive
36	CG31661 (GeneID 33330)	1	1.21e5	84781	6.28e5	6.54e5	inactive
37	CG31661 (GeneID 33330)	2	4.59e5	5.57e5	1.02e6	1.53e6	inactive
38	SkpD (GeneID 32995)	1	5.58e5	4.02e5	1.99e6	2.28e6	inactive
39	Indy (GeneID 40049)	1	59341	76239	6.81e5	6.34e5	inactive
40	didum (GeneID 35680)	1	3.21e5	2.81e5	1.82e6	1.46e6	inactive
41	CG11286 (GeneID 40919)	1	31148	65023	1.04e6	1.27e6	inactive
42	Drsl2 (GeneID 38408)	1	1.53e5	1.70e5	1.85e6	2.85e6	inactive
43	Drsl2 (GeneID 38408)	2	5.92e5	5.77e5	6.52e5	5.49e5	inactive
44	Tm2 (GeneID 41853)	1	1.31e5	1.07e5	1.77e6	1.97e6	inactive
45	Tm2 (GeneID 41853)	2	3.11e5	3.11e5	6.58e5	8.25e5	inactive
46	CG7514 (GeneID 38571)	1	1.08e5	97713	2.13e6	1.50e6	inactive
47	CG7514 (GeneID 38571)	2	7.17e5	9.03e5	8.70e5	8.97e5	inactive
48	CG31624 (GeneID 35393)	1	9.36e5	8.88e5	2.51e6	2.55e6	inactive
49	OstDelta (GeneID 37029)	1	5.99e5	5.77e5	6.31e5	4.77e5	inactive
50	OstDelta (GeneID 37029)	2	2.24e5	2.23e5	5.64e5	4.29e5	inactive
51	CG12877 (GeneID 43333)	1	1.99e5	2.38e5	2.41e6	3.14e6	inactive
52	CG17977 (GeneID 50251)	1	3.89e5	4.23e5	2.41e6	2.08e6	inactive
53	Elys (GeneID 32971)	1	46088	29496	2.96e5	3.05e5	inactive
54	caz (GeneID 32587)	1	7.76e5	7.20e5	1.68e6	1.09e6	inactive
55	caz (GeneID 32587)	2	3.85e5	3.67e5	1.83e6	1.47e6	inactive
56	ATPCL (GeneID 36760)	1	55394	1.26e5	1.56e6	1.56e6	inactive
57	ATPCL (GeneID 36760)	2	2.39e5	2.78e5	2.94e5	7.47e5	inactive
58	CG2938 (GeneID 31347)	1	1.18e5	81184	8.79e5	7.20e5	inactive
59	CG2938 (GeneID 31347)	2	1.03e6	7.00e5	2.28e6	1.65e6	inactive
60	CG5003 (GeneID 43344)	1	1.10e5	64760	4.00e5	6.39e5	inactive
61	CG5003 (GeneID 43344)	2	1.93e5	1.50e5	3.81e5	3.28e5	inactive
62	CG9360 (GeneID 32128)	1	3.52e5	3.64e5	3.61e6	3.60e6	inactive
63	CG9447 (GeneID 35597)	1	1.32e5	1.60e5	9.06e5	1.23e6	inactive
64	Cht7 (GeneID 38370)	1	1.27e6	1.32e6	1.66e6	1.84e6	inactive
65	Cht7 (GeneID 38370)	2	4.81e5	5.71e5	1.72e6	2.28e6	inactive
66	Ilp7 (GeneID 31328)	1	3.90e5	4.01e5	4.42e6	4.49e6	inactive
67	CG17768 + LSm-4	1	2.13e5	2.04e5	1.62e6	1.62e6	inactive
68	hng1 (GeneID 37412)	1	8.14e5	6.58e5	2.04e6	2.09e6	inactive
69	flr (GeneID 39505)	1	1.06e6	8.32e5	1.43e6	1.89e6	inactive
70	CG12490 (GeneID 37623)	1	2.48e5	3.10e5	2.01e6	1.70e6	inactive
71	TBC1d7 (GeneID 42869)	1	1.46e5	1.96e5	2.05e6	2.37e6	inactive
72	Mnr (GeneID 33098)	1	1.98e5	1.33e5	7.51e5	5.11e5	inactive
73	Mnr (GeneID 33098)	2	5.73e5	5.60e5	1.77e6	1.75e6	inactive
74	Mnr (GeneID 33098)	3	4.98e5	7.83e5	9.72e5	1.33e6	inactive

Looked up above:
Under “Renilla control light, replicate 1”, CG14126 (retired record) (GeneID 39350) #2 shows 1.26e6
Entry for SkpD (GeneID 32995) under “Renilla control light, replicate 1”: 1.99e6
Under “Renilla control light, replicate 2”, CG14126 (retired record) (GeneID 39350) #1 reads 1.51e6
For “Renilla control light, replicate 2”, TBC1d7 (GeneID 42869) shows 2.37e6
